Measurements as given in PubChem BioAssay AID1259415 (National Center for Advancing Translational Sciences (NCATS), 2018).
Where “and” joins values, the source holds several entries; their conditions need not be identical. Equal entries are not always repeated. The campaign covered roughly 410,000 compounds. About 18,000 (4.4%) were called active. Inconclusive means that the source gave no clear call. Such entries were picked first, then a sample of the others. Cut-off read from the data, not from the text of the source: active = activity change below about -60%; inconclusive = no clear call, values can overlap the other calls; inactive = above about -39%.

assay: qHTS Assay for inhibitors of the human cytomegalovirus (HCMV); details: HFF cells, HCMV-luciferase reporter, 72 h; at 57.5 µM; stronger effect = lower value
How it was run: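 Inhibition of viral replication was scored as loss of reporter luminescence in HFFs infected with HCMV-luciferase (MOI 1 PFU/cell) for 72 h; compounds tested at 2 doses, normalized to buffer and Salinomycin controls.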
% is set by controls: 0 for no effect and ±100 for the full control effect.

| Compound | activity change, negative = inhibition |
| --- | --- |
| N/C(=N\S(=O)(=O)c1cc(C(F)(F)F)cc(C(F)(F)F)c1)c1cccs1 | inconclusive: -41.4% |
| COc1ccc(Br)cc1CNC(=O)C(C)n1nc(C)n2c(cc3occc32)c1=O (configuration not stated) | inconclusive: -45.4% |
| O=C1C(Cc2ccccc2)C(c2ccccc2)N1c1ccccc1 (configuration not stated) | inactive: -4.61% |
| CCOc1ccccc1CNCc1ccc(F)cc1 | inconclusive: -49.8% |
| Cc1csc2ncc(C(=O)Nc3cccc(C(F)(F)F)c3)c(=O)n12 | inconclusive: -57.5% |
| O=C(Nc1nc(-c2ccc(S(=O)(=O)N3CCOCC3)cc2)cs1)c1ccccc1 | active: -94.2% and active: -91.5% |
| CC(=O)Nc1ccc(NC(=O)C(C)OC(=O)CNS(=O)(=O)c2ccc(Br)cc2Cl)cc1 (configuration not stated) | inactive: -11.4% |
| O=C(COc1ccc(S(=O)(=O)N2CCCCC2)cc1)N1CCOCC1 | inactive: -9.1% |
| CCN(Cc1ccccc1)C(=O)C1CCN(C/C(C)=C/c2ccccc2)CC1 | inconclusive: -49.3% |
| CC(C)(C)c1nc(NC(=O)Nc2ccccc2)sc1Br | active: -97.3% |
| CCCCN(C)C(=O)c1sc(=O)n(Cc2ccc(Cl)c(Cl)c2)c1C | inactive: -34.5% |
| CCOC(=O)C1CCN(C(=O)CCCOc2ccccc2)CC1 | inactive: -14.2% |
| Cc1ccc2c(c1)sc(=NC(=O)c1cccs1)n2C | inconclusive: -48.5% |
| Cc1ccc(-c2csc3nc[nH]c(=O)c23)c(C)c1 | inconclusive: -40.3% |
| COc1ccc(CCNC(=O)Cn2ncc3c(C)n(Cc4ccccc4F)c(C)c3c2=O)cc1OC | inactive: -1.37% |
| COC(=O)c1ccc2c(c1)N(Cc1ccccc1F)C(=O)c1ccccc1S2=O (configuration not stated) | inconclusive: -50.4% |
| O=C(NCc1ccccc1)C(c1ccc(O)cc1)N(C(=O)Cn1nnc(-c2cccs2)n1)c1ccc2c(c1)OCCO2 (configuration not stated) | inactive: -30.4% |
| Nc1ccc2c(c1)C(=O)N(c1cccc3ccccc13)C2=O | inactive: -9.55% |
| Cc1ccc(C)c(N2CCN(C(=O)CCCCCn3c(=S)[nH]c4ccc(N5CCOCC5)cc4c3=O)CC2)c1 | active: -88.3% |
| COc1cc(-c2noc(CCCC(=O)Nc3ccc(C(N)=O)cc3)n2)cc(OC)c1OC | inactive: 152% |
| CN(CC(=O)Nc1ccc(F)cc1)C(=O)c1ccc(-c2ccc(F)cc2)o1 | inactive: -15.8% |
| Cn1cc(S(=O)(=O)N2CCCCC2)cc1C(=O)N1CCN(c2ccc(F)cc2)CC1 | inactive: 6.89% |

| Compound | activity change, negative = inhibition |
| --- | --- |
| COc1ccc(NCc2cccnc2)cc1 | active: -86.2% |
| CCCCCCCCOC(=O)c1c(CSC(=N)N)n(C)c2cc(Br)c(OC(C)=O)cc12 | active: -91.7% |
| CC1CCN(c2ccc([N+](=O)[O-])c(SCCO)c2)CC1 | active: -72.7% |
| COc1ccc(C(=O)N(CCc2ccccc2)Cc2cccs2)c(OC)c1 | inconclusive: -42.9% |
| O=C(Nc1ccc(F)cc1Cl)n1ncc2cc(Cl)ccc21 | inactive: -5.94% |
| CCOC(=O)C(NC(C)=O)C(OC(C)=O)c1cccc(N(CCO)CCO)c1 (configuration not stated) | inconclusive: -41.2% |
| O=C1CCN(CCc2ccccc2)CCN1[C@H](CSc1ccccc1)Cc1ccccc1 | inactive: 13.5% |
| CS(=O)(=O)N(CC(=O)Nc1ccccc1)c1cccc(Cl)c1Cl | inconclusive: -40.4% |
| O=S(=O)(c1ccc(N2CCC(c3ccc(Cl)cc3)=N2)cc1)N(CCO)CCO | inactive: -27.1% |
| Cc1cc(=O)oc2c(C)c(OCC(=O)N3CCN(c4ccccc4)CC3)ccc12 | inconclusive: -44.2% |
| O=C(c1ccco1)N1CCN(c2ncnc3c2[nH]c2ccc(Br)cc23)CC1 | inconclusive: -44.5% |
| CCc1ccc(NC(=O)CSC2=Nc3ccccc3C3=NC(CCC(=O)NCCc4ccccc4)C(=O)N23)cc1 (configuration not stated) | inactive: -9.16% |
| CCn1nc(C)cc1C(=O)Sc1ccc(Cl)cc1Cl | active: -108% |
| Nc1ccc(N2CCCCC2)c(S(=O)(=O)Nc2ccccc2Cl)c1 | inconclusive: -42.4% |
| CCCCc1nn2c(=O)cc(COC(=O)COc3ccc(C)cc3)nc2s1 | inactive: -4% |
| Cc1ccc(CN2CCCC(C(=O)N3CCCC3)C2)cc1 (configuration not stated) | inactive: -18.9% |
| CSc1ccc(Cn2c(C)c(C(=O)NCCC#N)sc2=O)cc1 | inactive: -9.89% |
| CCOC(=O)CN1C(=O)c2ccccc2Sc2ncccc21 | inconclusive: -45.7% |
| CC(C)=CCCC1(C)C=Cc2c(ccc3c2[nH]c2cc(O)c(C)cc23)O1 (configuration not stated) | inconclusive: -56.1% |
| COc1ccccc1/C=C/C(=O)OCc1nc2ccccc2c(=O)[nH]1 | inactive: -21.5% |
| COc1ccc(/C=C2\CC/C(=C\c3ccc(OC)c(OC)c3)C2=O)cc1OC | inconclusive: -40.7% |
| CN(C)S(=O)(=O)N1CCC(c2ccc(F)cc2)C(COc2ccc3c(c2)OCO3)C1 (configuration not stated) | inactive: -28.7% |

Looked up by structure from the entries so far (6):

| Compound | activity change, negative = inhibition |
| --- | --- |
| Cc1ccc(CN2CCCC(C(=O)N3CCCC3)C2)cc1 (configuration not stated) | inactive: -18.9% |
| Cn1cc(S(=O)(=O)N2CCCCC2)cc1C(=O)N1CCN(c2ccc(F)cc2)CC1 | inactive: 6.89% |
| CCOc1ccccc1CNCc1ccc(F)cc1 | inconclusive: -49.8% |
| CCCCc1nn2c(=O)cc(COC(=O)COc3ccc(C)cc3)nc2s1 | inactive: -4% |
| O=C(Nc1ccc(F)cc1Cl)n1ncc2cc(Cl)ccc21 | inactive: -5.94% |
| COc1ccc(/C=C2\CC/C(=C\c3ccc(OC)c(OC)c3)C2=O)cc1OC | inconclusive: -40.7% |

(more compounds)

| Compound | activity change, negative = inhibition |
| --- | --- |
| C[C@@H]1CN([C@@H](C)CO)C(=O)CCCn2nncc2CO[C@@H]1CN(C)C(=O)Nc1ccc(-c2cccs2)cc1 | inactive: -5.54% |
| Cc1ccc(OCCOCCN2CCCCC2)c([N+](=O)[O-])c1 | inconclusive: -47.9% |
| COc1ccc(OCC(O)CNC(C)c2ccccc2)cc1 (configuration not stated) | inconclusive: -58.2% |
| CCCCC12CN3CCN(CC(C3)/C1=N\NC(=O)c1ccccc1N)C2 | inconclusive: -46.6% |
| Cc1ccccc1N1C(=O)N(c2cccc(C(F)(F)F)c2)C2CS(=O)(=O)CC21 (configuration not stated) | inconclusive: -43.6% |
| CCOC(=O)/C(C#N)=C/c1c(N2CCN(C)CC2)nc2c(C)cccn2c1=O | inactive: -11.7% |
| CCc1nnc(NC(=O)CCc2ccc(C)o2)s1 | inactive: 5.83% |
| Cc1cc2oc(=O)c(CC(=O)NCCCO)c(C)c2c2occ(C(C)(C)C)c12 | inconclusive: -47% |
| COc1ccc(CCNC(=O)/C=C\c2ccccc2)cc1OC | inconclusive: -49.4% |
| Nc1ncnc(N2CCc3ccccc32)c1[N+](=O)[O-] | active: -83.4% |
| Cc1ccc2nc(-c3ccc(Cl)cc3)cc(C(=O)OCC(=O)c3ccccc3)c2c1 | inactive: -12.4% |
| COCCN=C1NN=C(c2ccc(NC(C)=O)cc2)CS1 | active: -66.8% |
| CCOC(=O)N1CCN(Cc2nc(-c3ccc(Cl)cc3)no2)CC1 | inconclusive: -49% |
| COc1ccc2sc(N(CCCN(C)C)C(=O)c3ccc(S(=O)(=O)N4CCc5ccccc5C4)cc3)nc2c1 | active: -97.6% |
| CCc1ccc2c(c1)cc(CN(C(=S)Nc1ccccc1)C1CC1)c1nnnn12 | inactive: 5.82% |
| NC(=O)c1sc2nc(-c3ccccc3)c3c(c2c1N)CCCC3 | active: -60.6% |
| CN(CC(=O)Nc1ccc(F)cc1)C(=O)c1ccncc1 | active: -72.5% |
| COCCn1c(C)cc(C(=O)CSc2nnc(C)s2)c1C | inconclusive: -51% |
| COc1cc2nc(CN3CCN(S(=O)(=O)c4ccccc4[N+](=O)[O-])CC3)[nH]c(=O)c2cc1OC | inactive: -33% |
| O=c1[nH]c(Cc2ccccn2)nc2scc(-c3ccccc3Cl)c12 | active: -83.1% |
| CCN(CC)CCn1c2ccccc2c2nc3ccc([N+](=O)[O-])cc3cc21 | active: -98.3% |
| CCc1ccc(CNC(=O)C2CCN(S(=O)(=O)N3CC(C)CC(C)C3)CC2)cc1 (configuration not stated) | inconclusive: 0% |

| Compound | activity change, negative = inhibition |
| --- | --- |
| CSc1nc(-c2ccc(F)cc2)cc(=O)[nH]1 | inconclusive: -48.4% |
| CCCCn1c(-c2nonc2NC(=O)c2ccccc2Cl)nc2ccccc21 | active: -76.9% |
| CCOC(=O)c1c(NC(C)=O)sc2c(O)c(Br)cc(Br)c12 | inconclusive: -56.3% |
| O=C(COc1ccccc1-c1nnc(-c2ccccc2)o1)Nc1ccc(Br)cc1F | inactive: 14.3% |
| CC(=O)c1cccc(Nc2ccc3cc(S(=O)(=O)N4CCC(C)CC4)ccc3n2)c1 | inconclusive: -48.9% |
| Cc1cccc(Nc2nc(NCCCN3CCOCC3)nc(N)c2[N+](=O)[O-])c1 | inconclusive: -45.2% |
| Cc1ccc(OCc2cc(C(=O)NC(C)Cc3cccc(C)n3)no2)cn1 (configuration not stated) | inconclusive: -40.5% |
| CCCNC(=O)CCNS(=O)(=O)c1ccc2c(c1)c(=O)n(C)c(=O)n2C | inactive: -25.4% |
| COc1ccc2nc(N=NC3=C(O)CC(C)(C)CC3=O)sc2c1 | active: -94.6% |
| CC(=O)c1c[nH]c(C(=O)Nc2ccc(N3CCCCCC3)cc2)c1 | inconclusive: -41.3% |
| O=C(Nc1cccc(S(=O)(=O)N2CCCCCC2)c1)c1ccc(=O)[nH]c1 | inconclusive: -40.6% |
| CCc1nnc(SCc2ccc(F)cc2Cl)c2cc3sc(C)cc3n12 | inactive: -4.53% |
| COc1ccc(NS(=O)(=O)c2cccc(C(=O)NNC(=O)c3ccc(C)o3)c2)cc1 | inactive: -32.1% |
| CCOC(=O)Cn1nc(C)n(-c2ccc(Br)cc2)c1=O | inconclusive: -45.7% |
| COc1cccc(C2(C)NC(=O)N(CC(=O)Nc3ccc(N4CCOCC4)cc3)C2=O)c1 (configuration not stated) | inactive: 31.7% |
| Clc1cccc(N2CCN(c3c4c(nc5nncn35)CCC4)CC2)c1 | active: -64.8% |
| O=C(NCc1ccc2c(c1)OCO2)C1CCN(c2ccc(S(=O)(=O)N3CCCC3)cc2)CC1 | inconclusive: -45.8% |
| CSCC[C@H](NC(=O)c1ccc(Cl)c(S(=O)(=O)N2CCCC2)c1)c1nc2ccccc2[nH]1 | inactive: 43.6% |
| Cc1ccc(OCC(=O)NCCNC(=O)c2ccncc2)cc1 | inactive: -25.9% |
| Cc1ccccc1C(=O)/C(C#N)=N/Nc1c(C)n(C)n(-c2ccccc2)c1=O | active: -87.7% |
| FC(F)(F)c1nc(N2CCCC2)ncc1-c1nnnn1-c1ccccc1 | active: -71.7% |
